# Measurements: publication PMC4674823
# How the values were obtained:
# [1] = biological target: T1, GST–PIAS4 (affinity purification with endogenous AMPK subunits) (UniProt Q9JM05); assay: pull-down; reciprocal: GST–PIAS3 or GST–PIAS4 affinity purified on Glutathione-Sepharose (ELB buffer), western blot for endogenous AMPK subunits
# T1 sequence: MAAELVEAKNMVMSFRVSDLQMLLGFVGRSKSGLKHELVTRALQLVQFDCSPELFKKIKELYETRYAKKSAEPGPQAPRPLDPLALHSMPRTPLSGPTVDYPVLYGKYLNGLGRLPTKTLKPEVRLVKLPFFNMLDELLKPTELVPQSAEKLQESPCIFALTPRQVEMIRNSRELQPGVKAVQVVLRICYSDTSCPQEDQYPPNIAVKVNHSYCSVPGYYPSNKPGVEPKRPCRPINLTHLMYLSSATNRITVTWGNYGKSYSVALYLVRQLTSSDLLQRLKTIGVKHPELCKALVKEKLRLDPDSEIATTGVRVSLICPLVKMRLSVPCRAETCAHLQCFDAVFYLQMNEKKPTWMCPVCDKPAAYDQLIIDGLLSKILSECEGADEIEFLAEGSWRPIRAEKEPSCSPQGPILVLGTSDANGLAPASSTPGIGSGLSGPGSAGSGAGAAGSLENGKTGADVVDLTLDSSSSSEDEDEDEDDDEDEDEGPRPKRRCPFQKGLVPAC
# GST–PIAS3 = biological target: T2, GST–PIAS3 (UniProt O54714); assay: as above
# T2 sequence: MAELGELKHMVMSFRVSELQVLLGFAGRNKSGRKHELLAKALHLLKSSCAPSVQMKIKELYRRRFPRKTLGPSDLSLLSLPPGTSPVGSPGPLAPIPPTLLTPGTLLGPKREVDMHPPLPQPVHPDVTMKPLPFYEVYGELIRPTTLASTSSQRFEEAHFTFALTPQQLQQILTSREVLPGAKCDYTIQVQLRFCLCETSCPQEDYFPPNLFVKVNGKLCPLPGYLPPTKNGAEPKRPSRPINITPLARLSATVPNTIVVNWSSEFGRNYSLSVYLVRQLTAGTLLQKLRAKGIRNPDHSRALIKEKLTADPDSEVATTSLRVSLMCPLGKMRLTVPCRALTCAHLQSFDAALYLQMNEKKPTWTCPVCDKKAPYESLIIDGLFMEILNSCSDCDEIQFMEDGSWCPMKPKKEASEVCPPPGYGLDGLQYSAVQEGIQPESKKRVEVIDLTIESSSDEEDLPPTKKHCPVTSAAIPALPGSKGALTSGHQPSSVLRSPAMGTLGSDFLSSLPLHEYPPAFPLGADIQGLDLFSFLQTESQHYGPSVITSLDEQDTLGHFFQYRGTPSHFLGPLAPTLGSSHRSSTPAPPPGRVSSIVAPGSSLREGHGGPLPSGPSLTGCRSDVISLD
substance,measurement,setting,value
endogenous AMPKγ subunit (human (endogenous in HEK293)),binding,[1],binds
same,binding,GST–PIAS3,binds

# No constants are given. Whether binding was seen depends on the method and setting. Binding seen in cells or lysates may run through a third protein. Binding can be weak; no strength is given. Sequences can lack the tags named with a protein.
